These are yes or no findings as the source states them, for the method shown. Binding seen in cells or lysates may run through a third protein. These calls come from enrichment with a bait or labelling near it, and not all partners need be listed. For some assays here: No binding means not detected with the bait. Sequences can lack the tags named with a protein.

Experiment [1] concerns the target T1, FLAG-tagged SNF2 domain of SUUR (amino acids 1 to 278) fused to the SV40 NLS (Drosophila melanogaster) (UniProt Q9VTE2).
T1 sequence: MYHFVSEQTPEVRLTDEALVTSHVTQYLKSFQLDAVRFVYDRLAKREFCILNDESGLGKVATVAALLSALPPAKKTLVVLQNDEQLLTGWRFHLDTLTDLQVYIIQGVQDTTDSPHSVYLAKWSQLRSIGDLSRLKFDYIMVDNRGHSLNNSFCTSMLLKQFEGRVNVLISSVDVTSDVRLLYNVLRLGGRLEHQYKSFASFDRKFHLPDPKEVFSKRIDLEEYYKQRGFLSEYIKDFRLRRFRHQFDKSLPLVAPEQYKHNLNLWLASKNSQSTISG
In words: affinity purification with mass spectrometry; heat-shocked 0-24 hr embryos fixed 20 min in 2% formaldehyde, nuclei sonicated, cleared lysate on anti-FLAG M2 affinity gel 2 hr at 4°C, washed in LB3 and LB3 with 1M NaCl, eluted with 3X FLAG peptide; Oregon R as no-FLAG control; three biological replicates.

Experiment [2] has as its target T2, FLAG-tagged full-length SUUR (Suppressor of Underreplication protein) (Drosophila melanogaster) (UniProt Q9VTE2).
T2 sequence: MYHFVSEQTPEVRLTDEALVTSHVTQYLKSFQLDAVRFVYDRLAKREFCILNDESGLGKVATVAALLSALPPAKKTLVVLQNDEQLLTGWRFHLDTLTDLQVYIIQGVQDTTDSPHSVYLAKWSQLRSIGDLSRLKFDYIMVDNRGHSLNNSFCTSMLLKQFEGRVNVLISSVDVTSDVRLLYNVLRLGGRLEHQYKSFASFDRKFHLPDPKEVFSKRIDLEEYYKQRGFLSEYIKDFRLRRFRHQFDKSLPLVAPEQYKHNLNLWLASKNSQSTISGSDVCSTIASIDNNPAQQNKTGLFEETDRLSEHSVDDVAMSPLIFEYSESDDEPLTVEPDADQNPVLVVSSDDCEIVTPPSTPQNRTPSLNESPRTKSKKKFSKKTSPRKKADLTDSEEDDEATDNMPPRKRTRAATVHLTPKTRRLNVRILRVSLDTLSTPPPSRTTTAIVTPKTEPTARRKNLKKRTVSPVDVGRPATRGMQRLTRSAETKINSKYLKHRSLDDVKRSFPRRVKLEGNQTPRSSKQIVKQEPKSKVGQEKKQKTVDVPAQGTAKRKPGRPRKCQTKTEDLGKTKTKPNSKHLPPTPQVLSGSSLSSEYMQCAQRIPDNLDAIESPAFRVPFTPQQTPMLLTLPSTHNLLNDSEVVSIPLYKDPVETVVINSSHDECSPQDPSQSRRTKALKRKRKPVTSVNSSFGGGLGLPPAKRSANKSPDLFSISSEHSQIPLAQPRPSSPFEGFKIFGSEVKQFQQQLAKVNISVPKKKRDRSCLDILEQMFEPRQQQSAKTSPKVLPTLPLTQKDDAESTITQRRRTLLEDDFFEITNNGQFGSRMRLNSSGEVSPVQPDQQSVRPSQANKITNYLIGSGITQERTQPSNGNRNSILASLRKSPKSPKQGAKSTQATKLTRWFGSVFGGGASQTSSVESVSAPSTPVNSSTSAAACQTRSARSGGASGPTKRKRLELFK
The experiment is described as above.

B1: Rif1 (Rap1-interacting factor 1) (protein, UniProt Q9XZ34 1-1416)
chain: MDVDFGAQAGQSYRTVQLSAKEVLAAGRRQHYCNMIDLLASSCKSSGLIATSFTDDELVEFWLGDILPLMFDADRKIQDCAVAALAEALVALDVSVIHSAKCWPQIRSEFVDKYTIIIGEMRDAKNSNWHKIWTLLVQIMDEDLLRGCVYINKFLALVELGFRNPDNGVRSEAFLCWRVLIKIFAAYDELTSAKRLRLLLIPLRTSQSRSSHVSGIKLRVWWYLLSCLDHELPKSFDSAVEHFLAFMLGGGPRNLATGLAHNYQTARELALPCLVALWGVESSEPLQRLMRELRLETLVQPSPLMSVEVFQQHWKPLLAAAVSGLKLLTENDATEAEQLLLQLLVRNLCLAMFRLAVAPFNVACCSEIEKILQAEDNSGGRVVRALFNTIAADNLVMERVSGSDHLDVLEAYLKLVLKSKTEVPAAILQRSIACIFAVDRIEANNQNEFRMLGSFAELLMQANDEEDFEGFAFKLQVWRQVSQALSNYLRNNALEYRVAHNASLLDTWLLWPLQTLAAFAGRRASNSFDASFCDQWRQLVNAGQNAPGRKKFLTDLKATLTDLLKSKDEPLFAELFDAYVTSLIKFGLCKEAPLYKDVFGLLQTIFEQPSSQKTLEACLNTLRNLVVELRQNELMVVFDSLKPTLSSGIQCWNKMKCEGGFLEEWKRGIQEKFRKLPMKTMANQLKELFKADDLFVIIPSVWSLNPEKLTDRQKERFAEKSDIPALYNDMSQSQDSASIKPWTPKKVVIAKSKQGELALTGKDDNGEVIDITASEESEKEPVRVDVVTPIRKKPGRKSQAQKELEAAARAASLAEEPPKRQTRTRAAQKETEQVAQPQPAFEPQLRSPKKLPPSPVVQSTAAAVKQAKVAKPTPVVVIAQSEDLFPEVAAEPEPQPEPVKKPDPVPETTQLTPPDVPLEAVPSTQLPGSSGDPAASAGAVAAGEMSPKKSGTRIYNLSSPPDRKQTNNSSSPTLRPKPTGHLTGRGAQLINMIRNKKLDAASGSPYACMSTSRLVHQVTPARAQDRAEQVSTPTSELNELTGTDHTSTPIQAPPSKDLLVFSKRLPSPSASPSVSILKRKLRCESLDDVTLDSPALKRKRVSFHDPPVSVTKEYLRDAEETRSSLKPKRCLLMDKVAQTTEMRQALRRRGRLDSIIEIERFASEQTARTATTDKSLDKSTGEAPEEDAFTSLKWNDTGNAHNISISEEPVKAMEVESELETAGQDLAIMDPEAALDLAVAQLPLESVLQRYFDKSPLKSAGMLAKFLSAQMTANEKLKTNVLETLSENHSKDFLDHAVRENLSSVVCDRLNPTSVLEYVCAKSKISASCRNGLLAQVPEILKSGPRSDSERLAFVQQLMVQCSPGDDLLLDLIDLLMRTRRERNNSTSTHISKGVVSAVGSPDNVAETAADSSSNL
On to B1, for which the binding entry is listed as “no binding” in experiment [1] and “binds” in experiment [2].

Source of the values: PMC6185109.
